# Measurements from the supplement of paper PMC10849652.
# Sequences of proteins named here, by UniProt entry; tags and fusion partners are left off. A change or cut given only in a name is not applied to a line headed by its entry.
# UniProt O75822, whole entry, looked up: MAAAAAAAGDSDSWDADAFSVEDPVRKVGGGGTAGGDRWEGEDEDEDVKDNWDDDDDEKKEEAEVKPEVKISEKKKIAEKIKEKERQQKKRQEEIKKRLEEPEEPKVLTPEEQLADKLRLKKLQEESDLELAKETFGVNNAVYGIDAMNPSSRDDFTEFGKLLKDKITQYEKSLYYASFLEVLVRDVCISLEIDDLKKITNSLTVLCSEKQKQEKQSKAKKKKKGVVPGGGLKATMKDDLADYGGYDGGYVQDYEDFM
# UniProt P0DP91, whole entry, looked up: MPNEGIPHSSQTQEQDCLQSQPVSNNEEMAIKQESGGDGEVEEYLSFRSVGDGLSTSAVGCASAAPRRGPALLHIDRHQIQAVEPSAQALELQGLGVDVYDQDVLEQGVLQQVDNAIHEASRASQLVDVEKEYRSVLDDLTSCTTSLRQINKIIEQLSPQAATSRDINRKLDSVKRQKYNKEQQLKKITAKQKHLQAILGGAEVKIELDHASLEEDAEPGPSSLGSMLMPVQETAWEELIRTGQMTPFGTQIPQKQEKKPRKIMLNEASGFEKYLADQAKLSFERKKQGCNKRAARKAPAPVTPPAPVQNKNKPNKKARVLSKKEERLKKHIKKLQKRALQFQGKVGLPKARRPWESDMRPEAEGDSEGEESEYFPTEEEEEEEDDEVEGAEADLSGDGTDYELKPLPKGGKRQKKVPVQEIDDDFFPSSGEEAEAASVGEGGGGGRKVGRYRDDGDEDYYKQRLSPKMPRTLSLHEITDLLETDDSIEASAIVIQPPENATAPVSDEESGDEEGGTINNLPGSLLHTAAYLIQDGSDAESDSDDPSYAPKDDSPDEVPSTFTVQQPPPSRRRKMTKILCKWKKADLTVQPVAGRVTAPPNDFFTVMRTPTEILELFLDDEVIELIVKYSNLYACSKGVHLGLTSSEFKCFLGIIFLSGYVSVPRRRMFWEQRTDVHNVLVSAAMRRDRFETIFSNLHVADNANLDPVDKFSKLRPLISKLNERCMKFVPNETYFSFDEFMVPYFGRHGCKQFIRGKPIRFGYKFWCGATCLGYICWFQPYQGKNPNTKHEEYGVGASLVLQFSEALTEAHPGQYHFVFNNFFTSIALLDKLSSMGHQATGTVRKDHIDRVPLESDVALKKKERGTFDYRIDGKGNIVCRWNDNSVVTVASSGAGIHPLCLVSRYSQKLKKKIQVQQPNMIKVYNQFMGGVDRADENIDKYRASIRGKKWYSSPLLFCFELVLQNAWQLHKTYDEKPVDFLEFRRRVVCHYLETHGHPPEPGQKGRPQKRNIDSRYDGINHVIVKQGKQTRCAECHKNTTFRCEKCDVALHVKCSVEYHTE
# UniProt P50548: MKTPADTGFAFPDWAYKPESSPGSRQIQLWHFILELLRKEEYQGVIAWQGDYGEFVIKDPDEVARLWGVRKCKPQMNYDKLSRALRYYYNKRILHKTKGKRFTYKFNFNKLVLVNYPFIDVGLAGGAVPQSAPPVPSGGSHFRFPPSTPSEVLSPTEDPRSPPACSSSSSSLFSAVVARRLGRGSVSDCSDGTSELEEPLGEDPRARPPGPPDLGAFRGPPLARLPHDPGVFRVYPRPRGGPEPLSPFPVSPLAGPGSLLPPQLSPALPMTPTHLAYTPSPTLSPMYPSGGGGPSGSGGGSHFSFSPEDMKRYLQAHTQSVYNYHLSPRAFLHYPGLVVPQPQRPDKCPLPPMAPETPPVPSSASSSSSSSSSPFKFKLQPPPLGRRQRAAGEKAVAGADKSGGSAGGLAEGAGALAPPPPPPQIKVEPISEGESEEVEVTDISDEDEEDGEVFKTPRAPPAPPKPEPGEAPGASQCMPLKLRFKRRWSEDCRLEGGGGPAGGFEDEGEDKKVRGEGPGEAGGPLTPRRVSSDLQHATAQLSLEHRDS
# UniProt Q9H2F5, whole entry, looked up: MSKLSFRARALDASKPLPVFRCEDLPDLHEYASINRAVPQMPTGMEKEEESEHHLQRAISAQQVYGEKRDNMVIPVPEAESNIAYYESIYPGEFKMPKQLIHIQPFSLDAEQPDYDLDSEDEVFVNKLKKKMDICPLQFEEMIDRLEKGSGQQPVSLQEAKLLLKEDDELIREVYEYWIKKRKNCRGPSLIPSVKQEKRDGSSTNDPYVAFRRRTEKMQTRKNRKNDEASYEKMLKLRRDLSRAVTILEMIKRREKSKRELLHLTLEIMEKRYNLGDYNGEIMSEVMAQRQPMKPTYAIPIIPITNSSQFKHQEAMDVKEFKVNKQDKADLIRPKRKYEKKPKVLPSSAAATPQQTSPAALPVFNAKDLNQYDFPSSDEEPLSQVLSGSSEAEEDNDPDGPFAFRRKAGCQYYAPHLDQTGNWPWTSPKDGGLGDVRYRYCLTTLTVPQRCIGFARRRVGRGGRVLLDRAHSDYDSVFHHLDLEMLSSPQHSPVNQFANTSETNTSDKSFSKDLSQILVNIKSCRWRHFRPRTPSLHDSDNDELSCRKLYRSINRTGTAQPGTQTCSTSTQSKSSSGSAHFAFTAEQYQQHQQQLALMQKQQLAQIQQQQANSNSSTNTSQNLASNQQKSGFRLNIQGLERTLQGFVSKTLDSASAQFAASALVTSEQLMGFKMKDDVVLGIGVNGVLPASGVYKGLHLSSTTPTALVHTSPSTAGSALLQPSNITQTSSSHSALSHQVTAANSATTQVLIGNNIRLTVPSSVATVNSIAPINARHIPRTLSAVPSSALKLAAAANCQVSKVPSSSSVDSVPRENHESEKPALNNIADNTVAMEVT
# UniProt Q05BV3: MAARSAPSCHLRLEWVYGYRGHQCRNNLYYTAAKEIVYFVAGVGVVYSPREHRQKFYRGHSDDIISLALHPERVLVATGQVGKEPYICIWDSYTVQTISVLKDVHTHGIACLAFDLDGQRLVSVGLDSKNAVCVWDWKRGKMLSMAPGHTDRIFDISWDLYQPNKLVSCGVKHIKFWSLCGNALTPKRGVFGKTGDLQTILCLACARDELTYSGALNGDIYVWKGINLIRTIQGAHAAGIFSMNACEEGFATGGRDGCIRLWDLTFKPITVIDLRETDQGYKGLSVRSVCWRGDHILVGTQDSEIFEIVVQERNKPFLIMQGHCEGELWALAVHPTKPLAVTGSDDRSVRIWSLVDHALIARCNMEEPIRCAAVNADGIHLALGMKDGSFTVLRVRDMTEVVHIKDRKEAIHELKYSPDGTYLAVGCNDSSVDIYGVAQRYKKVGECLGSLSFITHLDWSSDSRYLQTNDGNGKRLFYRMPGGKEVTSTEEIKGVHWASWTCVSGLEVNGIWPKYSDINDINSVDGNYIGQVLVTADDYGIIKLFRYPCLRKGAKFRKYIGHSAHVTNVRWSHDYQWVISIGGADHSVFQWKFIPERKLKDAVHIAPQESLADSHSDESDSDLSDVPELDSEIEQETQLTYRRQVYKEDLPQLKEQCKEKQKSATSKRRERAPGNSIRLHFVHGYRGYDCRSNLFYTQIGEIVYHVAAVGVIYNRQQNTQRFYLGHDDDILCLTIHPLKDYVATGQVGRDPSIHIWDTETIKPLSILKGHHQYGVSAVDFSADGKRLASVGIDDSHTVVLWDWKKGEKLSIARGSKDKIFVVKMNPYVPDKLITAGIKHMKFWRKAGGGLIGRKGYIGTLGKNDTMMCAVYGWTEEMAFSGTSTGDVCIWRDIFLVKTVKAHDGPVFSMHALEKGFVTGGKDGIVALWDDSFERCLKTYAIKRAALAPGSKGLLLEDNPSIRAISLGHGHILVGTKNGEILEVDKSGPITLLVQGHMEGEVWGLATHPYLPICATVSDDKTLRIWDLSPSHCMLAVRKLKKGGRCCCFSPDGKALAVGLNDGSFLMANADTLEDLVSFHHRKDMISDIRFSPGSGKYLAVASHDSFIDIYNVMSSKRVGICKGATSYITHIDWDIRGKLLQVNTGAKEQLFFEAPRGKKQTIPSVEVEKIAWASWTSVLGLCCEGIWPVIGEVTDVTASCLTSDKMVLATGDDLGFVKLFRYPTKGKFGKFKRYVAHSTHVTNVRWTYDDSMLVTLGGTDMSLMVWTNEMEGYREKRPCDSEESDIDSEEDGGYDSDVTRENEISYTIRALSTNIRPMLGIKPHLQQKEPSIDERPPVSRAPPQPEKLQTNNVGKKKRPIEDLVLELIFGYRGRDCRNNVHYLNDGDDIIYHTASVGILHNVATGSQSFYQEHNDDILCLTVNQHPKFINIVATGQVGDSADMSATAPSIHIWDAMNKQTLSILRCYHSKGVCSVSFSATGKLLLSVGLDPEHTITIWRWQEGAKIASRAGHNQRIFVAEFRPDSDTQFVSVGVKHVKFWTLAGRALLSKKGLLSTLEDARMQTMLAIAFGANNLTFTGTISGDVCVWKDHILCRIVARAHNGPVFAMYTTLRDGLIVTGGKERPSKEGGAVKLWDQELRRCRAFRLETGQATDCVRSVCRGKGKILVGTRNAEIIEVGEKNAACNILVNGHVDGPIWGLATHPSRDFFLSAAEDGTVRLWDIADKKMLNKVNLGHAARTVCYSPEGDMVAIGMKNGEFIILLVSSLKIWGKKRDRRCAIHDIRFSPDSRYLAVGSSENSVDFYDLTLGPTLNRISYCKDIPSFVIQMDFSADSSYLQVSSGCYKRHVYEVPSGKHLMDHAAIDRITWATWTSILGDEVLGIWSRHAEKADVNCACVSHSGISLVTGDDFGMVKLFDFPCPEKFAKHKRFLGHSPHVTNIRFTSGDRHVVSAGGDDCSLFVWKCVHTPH
# UniProt A1L3X0: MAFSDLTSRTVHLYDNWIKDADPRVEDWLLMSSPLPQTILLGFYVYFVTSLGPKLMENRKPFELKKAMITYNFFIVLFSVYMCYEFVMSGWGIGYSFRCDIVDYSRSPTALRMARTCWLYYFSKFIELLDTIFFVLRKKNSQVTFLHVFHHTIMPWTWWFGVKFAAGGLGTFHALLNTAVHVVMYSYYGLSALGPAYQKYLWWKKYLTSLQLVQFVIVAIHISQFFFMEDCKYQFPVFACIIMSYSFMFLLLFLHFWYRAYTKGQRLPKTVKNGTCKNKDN
# UniProt Q13216, whole entry, looked up: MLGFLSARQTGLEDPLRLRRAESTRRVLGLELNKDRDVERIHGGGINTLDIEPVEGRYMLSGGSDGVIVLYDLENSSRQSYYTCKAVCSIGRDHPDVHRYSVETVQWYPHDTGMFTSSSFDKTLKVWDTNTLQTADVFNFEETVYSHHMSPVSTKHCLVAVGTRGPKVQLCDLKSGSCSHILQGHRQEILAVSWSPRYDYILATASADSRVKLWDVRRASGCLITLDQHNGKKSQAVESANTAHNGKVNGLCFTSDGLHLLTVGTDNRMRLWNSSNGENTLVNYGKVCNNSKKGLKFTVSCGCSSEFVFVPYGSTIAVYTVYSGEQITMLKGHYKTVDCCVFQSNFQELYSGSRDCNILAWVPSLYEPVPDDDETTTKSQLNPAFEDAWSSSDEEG
# UniProt Q9NZJ5: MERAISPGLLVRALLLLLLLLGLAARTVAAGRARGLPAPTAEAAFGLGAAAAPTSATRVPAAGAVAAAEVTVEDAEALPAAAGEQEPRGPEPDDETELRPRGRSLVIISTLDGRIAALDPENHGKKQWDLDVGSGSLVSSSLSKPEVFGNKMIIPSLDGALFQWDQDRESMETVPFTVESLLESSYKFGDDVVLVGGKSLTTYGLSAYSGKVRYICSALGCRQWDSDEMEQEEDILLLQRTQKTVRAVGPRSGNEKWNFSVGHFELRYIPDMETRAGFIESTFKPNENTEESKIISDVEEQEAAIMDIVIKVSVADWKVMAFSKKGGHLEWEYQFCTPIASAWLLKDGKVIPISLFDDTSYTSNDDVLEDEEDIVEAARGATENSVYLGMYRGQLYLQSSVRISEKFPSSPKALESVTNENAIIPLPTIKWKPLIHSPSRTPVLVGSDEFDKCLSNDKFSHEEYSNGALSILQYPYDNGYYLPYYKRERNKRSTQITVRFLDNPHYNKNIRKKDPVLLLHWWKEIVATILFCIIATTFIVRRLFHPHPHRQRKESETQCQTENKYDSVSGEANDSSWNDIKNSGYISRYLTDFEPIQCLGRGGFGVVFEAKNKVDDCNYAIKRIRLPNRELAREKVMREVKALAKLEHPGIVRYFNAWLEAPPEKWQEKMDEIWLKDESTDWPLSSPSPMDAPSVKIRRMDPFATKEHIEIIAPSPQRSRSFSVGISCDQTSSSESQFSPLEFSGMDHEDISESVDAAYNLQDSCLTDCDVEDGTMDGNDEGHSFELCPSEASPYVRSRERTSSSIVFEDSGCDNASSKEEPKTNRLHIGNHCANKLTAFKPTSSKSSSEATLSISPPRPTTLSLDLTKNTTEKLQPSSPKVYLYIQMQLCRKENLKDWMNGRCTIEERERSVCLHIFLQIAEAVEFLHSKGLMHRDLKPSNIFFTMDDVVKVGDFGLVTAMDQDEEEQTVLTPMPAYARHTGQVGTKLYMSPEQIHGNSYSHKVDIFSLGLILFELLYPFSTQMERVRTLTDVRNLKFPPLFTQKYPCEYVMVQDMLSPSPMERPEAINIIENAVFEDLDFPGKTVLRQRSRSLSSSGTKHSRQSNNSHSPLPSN
# Some of the results follow.
# Legend:
# Assay in all cases: log2 fold change, soluble protein after heating vs DMSO (PISA); higher = thermal stabilisation; K562 lysate, 10 uM; active = over 0.2 and 3.5 SD of the protein, either way, in both replicates (recomputed)
# [1] = compound: CC1=C2C(=CC=C1)N=C(N(C2=O)C3=CC=CC=C3C)CN4C=NC5=C(N=CN=C54)N
# Method in brief: (§1)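 Log-two fold change in thermal stability relative to solvent controls is reported from duplicates. For each sample, crude K562 extract from dounce-homogenised pellets in PBS pH 7.4 with 1 mM MgCl2, at 1 mg/mL protein, was treated with 10 μM compound for 30 min. Aliquots heated for 3 min across 48°C-58°C were pooled, brought to 0.5% NP-40 at 4°C and cleared at 21,000xg for 90 min. The supernatant was quantified by TMTpro 16plex LC-MS/MS with channel sums equalised.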
# [2] = compound: c1ccc([C@@H]2C[C@H]2NC2CCNCC2)cc1
# Method in brief: as §1
# [3] = compound: Cc1sc2c(c1C)C(c1ccc(Cl)cc1)=N[C@@H](CC(=O)OC(C)(C)C)c1nnc(C)n1-2
# Method in brief: as §1
# [4] = compound: C1=CC=C(C=C1)[C@H](COC2=CC3=C(C=C2)NC(=O)N3)NC(=O)C4=CC=CN(C4=O)CC5=CC(=C(C=C5)F)F
# Method in brief: as §1
# [5] = compound: CC1=C(SC2=C1C(=N[C@H](C3=NN=C(N32)C)CC(=O)N)C4=CC=C(C=C4)Cl)C
# Method in brief: as §1
Target,log2 fold change [1],log2 fold change [2],log2 fold change [3],log2 fold change [4],log2 fold change [5]
EPHB6 (UniProt O15197),inactive: -0.132,inactive: 0.128,–,–,–
ELMO2 (UniProt Q96JJ3),inactive: 0.034,inactive: 0.05,inactive: -0.019,–,–
ELOF1 (UniProt P60002),–,inactive: -0.14,inactive: 0.038,inactive: 0,inactive: -0.136
EIF3J isoform 2 (UniProt O75822),inactive: -0.037,inactive: 0.14,–,–,–
ENTPD6 (UniProt O75354),–,inactive: 0.054,inactive: 0.029,inactive: 0.236,inactive: 0.052
ERCC6 (UniProt P0DP91),–,–,inactive: 0.179,inactive: 0,inactive: -0.071
EIF3B (UniProt C9JQN7),–,inactive: -0.1,–,inactive: -0.009,inactive: 0.009
ERF (UniProt P50548),inactive: -0.11,–,inactive: -0.107,–,–
EIF4B (UniProt F8VP89),–,–,inactive: 0.114,inactive: 0.01,inactive: 0.049
EPC1 (UniProt Q9H2F5),–,inactive: -0.103,–,inactive: -0.098,inactive: -0.109
EPB41L2 isoform 4 (UniProt O43491),–,inactive: -0.028,–,inactive: -0.199,inactive: 0.252
EML5 isoform 5 (UniProt Q05BV3),–,inactive: -0.168,inactive: -0.14,–,–
ELOVL7 (UniProt A1L3X0),–,–,inactive: 0.058,inactive: -0.028,inactive: 0.025
ERCC8 (UniProt Q13216),–,inactive: -0.028,–,inactive: 0.009,inactive: -0.018
ELOVL6 (UniProt Q9H5J4),inactive: -0.149,inactive: -0.009,inactive: 0.238,–,–
EIF2AK3 (UniProt Q9NZJ5),–,inactive: 0.041,inactive: 0.025,–,–

# A few values from above:
# log2 fold change [4] with EIF3B (UniProt C9JQN7) is entered as inactive: -0.009
# log2 fold change [2] with EPC1 (UniProt Q9H2F5) is entered as inactive: -0.103
